1 molecule from article PMC12115799 can be followed below.

Amino acid sequences for entries named in this document (tags omitted).
UniProt Q8WZA2: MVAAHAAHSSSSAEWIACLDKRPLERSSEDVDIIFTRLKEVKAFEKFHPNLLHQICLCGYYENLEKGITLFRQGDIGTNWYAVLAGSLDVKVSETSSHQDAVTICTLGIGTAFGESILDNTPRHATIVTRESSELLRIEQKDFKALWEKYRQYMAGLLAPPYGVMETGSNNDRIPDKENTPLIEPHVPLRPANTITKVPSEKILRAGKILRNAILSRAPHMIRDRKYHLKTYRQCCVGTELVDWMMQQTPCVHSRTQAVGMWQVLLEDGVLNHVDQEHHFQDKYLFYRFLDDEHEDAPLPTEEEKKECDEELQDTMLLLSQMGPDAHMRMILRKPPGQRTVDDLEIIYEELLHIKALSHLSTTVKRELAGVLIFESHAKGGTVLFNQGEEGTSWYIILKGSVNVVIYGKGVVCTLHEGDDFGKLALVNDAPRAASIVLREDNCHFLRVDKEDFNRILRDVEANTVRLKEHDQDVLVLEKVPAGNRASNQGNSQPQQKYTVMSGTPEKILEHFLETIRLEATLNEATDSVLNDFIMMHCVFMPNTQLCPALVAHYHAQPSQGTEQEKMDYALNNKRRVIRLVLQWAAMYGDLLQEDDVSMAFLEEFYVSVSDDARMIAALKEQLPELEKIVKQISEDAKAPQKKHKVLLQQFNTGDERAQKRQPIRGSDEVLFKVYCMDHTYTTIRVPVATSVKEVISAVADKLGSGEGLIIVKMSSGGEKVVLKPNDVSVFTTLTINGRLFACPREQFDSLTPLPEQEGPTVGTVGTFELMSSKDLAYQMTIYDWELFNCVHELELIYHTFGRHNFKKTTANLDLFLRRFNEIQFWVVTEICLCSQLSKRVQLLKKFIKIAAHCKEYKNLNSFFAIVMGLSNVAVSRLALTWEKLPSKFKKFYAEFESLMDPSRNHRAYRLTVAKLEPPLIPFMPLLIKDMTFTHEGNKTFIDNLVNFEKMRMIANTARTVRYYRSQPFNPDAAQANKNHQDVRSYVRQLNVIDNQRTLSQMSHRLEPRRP

These are yes or no findings as the source states them, for the method shown. Binding seen in cells or lysates may run through a third protein. Some binding calls cover weakened binding; strength is not graded here.

For the test, the target named is endogenous EPAC2 (human (endogenous in A549)) (UniProt Q8WZA2). Nature of the test: co-IP.

B1: junction plakoglobin (JUP) (protein, UniProt P14923 1-745)
chain: MEVMNLMEQPIKVTEWQQTYTYDSGIHSGANTCVPSVSSKGIMEEDEACGRQYTLKKTTTYTQGVPPSQGDLEYQMSTTARAKRVREAMCPGVSGEDSSLLLATQVEGQATNLQRLAEPSQLLKSAIVHLINYQDDAELATRALPELTKLLNDEDPVVVTKAAMIVNQLSKKEASRRALMGSPQLVAAVVRTMQNTSDLDTARCTTSILHNLSHHREGLLAIFKSGGIPALVRMLSSPVESVLFYAITTLHNLLLYQEGAKMAVRLADGLQKMVPLLNKNNPKFLAITTDCLQLLAYGNQESKLIILANGGPQALVQIMRNYSYEKLLWTTSRVLKVLSVCPSNKPAIVEAGGMQALGKHLTSNSPRLVQNCLWTLRNLSDVATKQEGLESVLKILVNQLSVDDVNVLTCATGTLSNLTCNNSKNKTLVTQNSGVEALIHAILRAGDKDDITEPAVCALRHLTSRHPEAEMAQNSVRLNYGIPAIVKLLNQPNQWPLVKATIGLIRNLALCPANHAPLQEAAVIPRLVQLLVKAHQDAQRHVAAGTQQPYTDGVRMEEIVEGCTGALHILARDPMNRMEIFRLNTIPLFVQLLYSSVENIQRVAAGVLCELAQDKEAADAIDAEGASAPLMELLHSRNEGTATYAAAVLFRISEDKNPDYRKRVSVELTNSLFKHDPAAWEAAQSMIPINEPYGDDMDATYRPMYSSDVPLDPLEMHMDMDGDYPIDTYSDGLRPPYPTADHMLA
For B1, the binding result is given as “binds”.
